Source: article PMC12990696
No constants are given. Whether binding was seen depends on the method and setting. Binding seen in cells or lysates may run through a third protein. Binding calls can cover weak binding; strength is not graded here.

Target: T1, asparaginyl endopeptidase (AEP) (human (endogenous in human HPMCs or SKOV3 cells; cells of the co-IP not named)) (UniProt Q99538)
T1 sequence: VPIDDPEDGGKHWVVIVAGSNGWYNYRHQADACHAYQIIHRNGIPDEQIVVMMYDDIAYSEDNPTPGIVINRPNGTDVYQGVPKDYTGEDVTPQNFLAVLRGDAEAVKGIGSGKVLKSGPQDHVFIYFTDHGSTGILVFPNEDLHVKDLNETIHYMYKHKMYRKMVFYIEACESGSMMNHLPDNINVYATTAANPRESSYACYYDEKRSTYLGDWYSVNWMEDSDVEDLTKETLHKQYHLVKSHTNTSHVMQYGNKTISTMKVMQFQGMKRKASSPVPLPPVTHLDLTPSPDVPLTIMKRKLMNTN
Assay: co-IP; Pierce Co-Immunoprecipitation Kit; cell lysate incubated overnight with anti-legumain antibody (R&D, AF2199); precipitate analysed by Western blotting

Substance: integrin α5β1 (ITGA5B1) (complex)
- binding: binds
